From WO2014051109A1 (dated 2014) come the findings set out here.

Results are given in words; binding and its absence hold for the method and conditions named.

The target of the test is T1, human BMP9/10 chimeric protein B (human) (UniProt Q9UK05).
T1 sequence 1: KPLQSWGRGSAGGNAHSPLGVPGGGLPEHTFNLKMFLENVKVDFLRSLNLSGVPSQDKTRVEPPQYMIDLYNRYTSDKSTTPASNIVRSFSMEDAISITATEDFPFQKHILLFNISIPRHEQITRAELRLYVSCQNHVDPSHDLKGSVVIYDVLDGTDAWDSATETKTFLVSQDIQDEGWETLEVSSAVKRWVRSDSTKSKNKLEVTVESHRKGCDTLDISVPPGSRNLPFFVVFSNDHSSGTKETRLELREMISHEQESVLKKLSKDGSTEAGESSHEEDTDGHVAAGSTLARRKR
T1 sequence 2: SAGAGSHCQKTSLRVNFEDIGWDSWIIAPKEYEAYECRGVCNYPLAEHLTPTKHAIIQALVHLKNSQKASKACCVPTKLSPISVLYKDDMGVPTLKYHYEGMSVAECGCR
Nature of the test: condition: 1000 ng/mL antibody; absorbance less than 1; solid-phase antigen ELISA on immobilized chimeric protein (3 ug/mL). (In general: In an ELISA, binding on a coated surface is turned into a signal by an enzyme label.)

B1: 3C7-3-1 antibody (antibody, V domains shown)
VH: EVQLQQSGPELVKPGASVKISCKASGNSFTGYYMNWMKQSPEKSLEWIGEINPSTGATTYNQKFKAKATLTVDKSSSTAYMQLKSLTSEDFAVYYCTRRAAYYFDYWGQGTTLTVSS
VL: QIVLTQSPALMSASPGEKVTMTCSASSSVNYMYWYQQKPRSSPKPWIYLTSNLASGVPARFSGSGSGTSYSLTISSMEAEDAATYYCQQWSSNPRTFGGGTKLEIK
notes: Mouse IgG1, kappa; also called recombinant 3C7-3-1 antibody (mouse IgG1, kappa)
Regarding B1, the binding result is “no binding”.
